Drawing on the supplement of paper PMC6411743, this text covers NP40-soluble protein abundance for 27 targets.

Chains of the proteins cited; added tags and fusions are not shown. Lines headed by an entry give the natural chain unless they say otherwise; changes in a name come on top.
UniProt Q86WR0: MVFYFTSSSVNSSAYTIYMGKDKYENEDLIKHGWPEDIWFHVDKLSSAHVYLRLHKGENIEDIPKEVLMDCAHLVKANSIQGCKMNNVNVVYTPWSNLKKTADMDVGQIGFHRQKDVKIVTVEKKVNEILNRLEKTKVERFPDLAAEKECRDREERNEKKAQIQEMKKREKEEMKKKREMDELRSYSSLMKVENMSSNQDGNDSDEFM
UniProt Q7Z6K3: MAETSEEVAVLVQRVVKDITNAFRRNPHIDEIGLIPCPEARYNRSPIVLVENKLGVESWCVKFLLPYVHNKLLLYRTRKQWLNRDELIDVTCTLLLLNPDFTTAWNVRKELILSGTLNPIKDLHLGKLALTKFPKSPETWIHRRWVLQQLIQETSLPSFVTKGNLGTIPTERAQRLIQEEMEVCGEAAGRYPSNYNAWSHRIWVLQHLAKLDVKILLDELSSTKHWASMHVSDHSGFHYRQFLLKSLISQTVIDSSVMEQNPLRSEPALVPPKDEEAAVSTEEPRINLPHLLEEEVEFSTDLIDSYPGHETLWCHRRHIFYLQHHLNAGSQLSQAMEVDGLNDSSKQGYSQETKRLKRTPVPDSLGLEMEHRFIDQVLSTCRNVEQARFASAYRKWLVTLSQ
UniProt Q6ZVK8: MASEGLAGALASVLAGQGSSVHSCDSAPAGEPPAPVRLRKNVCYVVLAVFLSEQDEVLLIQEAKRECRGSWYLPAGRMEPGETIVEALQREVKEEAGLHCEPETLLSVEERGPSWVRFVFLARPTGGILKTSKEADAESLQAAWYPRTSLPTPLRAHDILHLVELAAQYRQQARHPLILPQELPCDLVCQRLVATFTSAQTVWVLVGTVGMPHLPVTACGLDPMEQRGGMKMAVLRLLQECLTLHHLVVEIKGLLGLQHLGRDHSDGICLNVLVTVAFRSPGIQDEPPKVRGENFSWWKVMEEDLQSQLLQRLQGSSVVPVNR
UniProt Q7Z4H3: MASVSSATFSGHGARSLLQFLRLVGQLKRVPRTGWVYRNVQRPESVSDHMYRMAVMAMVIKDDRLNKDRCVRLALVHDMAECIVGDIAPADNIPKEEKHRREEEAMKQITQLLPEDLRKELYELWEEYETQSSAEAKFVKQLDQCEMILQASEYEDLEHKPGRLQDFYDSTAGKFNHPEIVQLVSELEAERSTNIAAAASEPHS
UniProt Q6QNY1: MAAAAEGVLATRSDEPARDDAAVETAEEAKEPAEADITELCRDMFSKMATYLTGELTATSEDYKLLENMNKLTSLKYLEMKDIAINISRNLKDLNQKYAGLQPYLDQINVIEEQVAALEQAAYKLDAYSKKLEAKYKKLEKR
UniProt Q86V85: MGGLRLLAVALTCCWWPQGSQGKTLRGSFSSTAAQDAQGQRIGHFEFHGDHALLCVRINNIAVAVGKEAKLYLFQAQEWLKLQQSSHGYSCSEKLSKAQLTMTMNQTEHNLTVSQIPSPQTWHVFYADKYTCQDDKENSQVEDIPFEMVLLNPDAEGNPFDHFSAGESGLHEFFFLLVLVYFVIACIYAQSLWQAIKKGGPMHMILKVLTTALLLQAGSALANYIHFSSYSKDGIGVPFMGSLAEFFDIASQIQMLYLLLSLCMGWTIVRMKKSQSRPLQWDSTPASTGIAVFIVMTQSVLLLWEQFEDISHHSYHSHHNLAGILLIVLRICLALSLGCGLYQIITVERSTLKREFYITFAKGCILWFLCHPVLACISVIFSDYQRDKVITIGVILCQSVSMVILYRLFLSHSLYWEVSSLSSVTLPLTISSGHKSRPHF
UniProt Q71RG4: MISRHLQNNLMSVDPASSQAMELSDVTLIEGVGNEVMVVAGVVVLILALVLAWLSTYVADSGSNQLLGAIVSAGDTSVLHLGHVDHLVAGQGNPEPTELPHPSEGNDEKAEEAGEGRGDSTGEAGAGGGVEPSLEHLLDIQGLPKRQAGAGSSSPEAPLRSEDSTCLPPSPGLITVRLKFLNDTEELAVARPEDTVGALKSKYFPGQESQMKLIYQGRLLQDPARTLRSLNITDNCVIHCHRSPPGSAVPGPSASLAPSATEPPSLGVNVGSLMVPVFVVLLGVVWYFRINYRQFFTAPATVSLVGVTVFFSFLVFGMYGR
UniProt Q7Z7L7: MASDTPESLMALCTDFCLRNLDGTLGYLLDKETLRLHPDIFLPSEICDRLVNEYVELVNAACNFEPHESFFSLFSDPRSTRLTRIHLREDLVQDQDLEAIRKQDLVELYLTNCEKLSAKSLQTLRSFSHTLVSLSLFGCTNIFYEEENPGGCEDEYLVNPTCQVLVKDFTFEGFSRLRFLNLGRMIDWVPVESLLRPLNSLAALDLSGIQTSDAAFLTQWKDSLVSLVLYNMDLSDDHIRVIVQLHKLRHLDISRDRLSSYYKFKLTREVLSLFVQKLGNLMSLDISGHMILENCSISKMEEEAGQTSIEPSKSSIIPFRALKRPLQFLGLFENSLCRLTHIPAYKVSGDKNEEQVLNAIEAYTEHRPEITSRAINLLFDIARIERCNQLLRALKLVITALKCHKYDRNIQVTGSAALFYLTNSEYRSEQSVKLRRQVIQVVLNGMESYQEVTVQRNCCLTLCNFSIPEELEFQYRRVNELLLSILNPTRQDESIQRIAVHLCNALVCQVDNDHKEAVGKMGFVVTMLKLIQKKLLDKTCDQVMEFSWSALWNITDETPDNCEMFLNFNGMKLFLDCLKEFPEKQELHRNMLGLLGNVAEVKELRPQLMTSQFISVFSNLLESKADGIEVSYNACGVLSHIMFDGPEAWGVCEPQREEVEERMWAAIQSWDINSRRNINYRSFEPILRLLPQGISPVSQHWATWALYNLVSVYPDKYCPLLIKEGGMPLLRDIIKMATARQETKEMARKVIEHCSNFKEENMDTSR
UniProt Q86YM7: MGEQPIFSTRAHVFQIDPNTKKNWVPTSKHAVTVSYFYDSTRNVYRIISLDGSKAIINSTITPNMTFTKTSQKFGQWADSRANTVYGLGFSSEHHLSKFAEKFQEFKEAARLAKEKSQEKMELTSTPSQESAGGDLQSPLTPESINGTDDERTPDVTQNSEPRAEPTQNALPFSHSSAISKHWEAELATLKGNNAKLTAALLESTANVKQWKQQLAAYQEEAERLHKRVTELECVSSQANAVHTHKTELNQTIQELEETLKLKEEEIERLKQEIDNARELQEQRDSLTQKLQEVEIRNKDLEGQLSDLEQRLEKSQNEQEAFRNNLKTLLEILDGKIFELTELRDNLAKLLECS
UniProt Q6UWP7: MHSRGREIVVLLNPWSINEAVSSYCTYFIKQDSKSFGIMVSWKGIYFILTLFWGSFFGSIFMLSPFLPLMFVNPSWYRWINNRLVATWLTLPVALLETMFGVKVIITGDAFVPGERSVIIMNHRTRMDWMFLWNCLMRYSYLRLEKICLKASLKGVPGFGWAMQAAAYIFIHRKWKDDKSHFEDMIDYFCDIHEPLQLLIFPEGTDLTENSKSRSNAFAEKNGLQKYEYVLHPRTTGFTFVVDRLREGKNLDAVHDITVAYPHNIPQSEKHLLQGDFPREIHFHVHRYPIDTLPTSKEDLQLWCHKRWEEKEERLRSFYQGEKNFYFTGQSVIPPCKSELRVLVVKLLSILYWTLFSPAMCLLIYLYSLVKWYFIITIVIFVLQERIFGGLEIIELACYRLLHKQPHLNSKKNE
UniProt Q6QNY0: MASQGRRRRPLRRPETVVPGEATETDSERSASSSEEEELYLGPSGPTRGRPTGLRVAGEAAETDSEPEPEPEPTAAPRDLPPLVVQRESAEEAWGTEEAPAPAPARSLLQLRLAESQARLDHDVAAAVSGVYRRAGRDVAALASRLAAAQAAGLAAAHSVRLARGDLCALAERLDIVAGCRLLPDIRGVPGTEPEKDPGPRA
UniProt Q7Z7H5: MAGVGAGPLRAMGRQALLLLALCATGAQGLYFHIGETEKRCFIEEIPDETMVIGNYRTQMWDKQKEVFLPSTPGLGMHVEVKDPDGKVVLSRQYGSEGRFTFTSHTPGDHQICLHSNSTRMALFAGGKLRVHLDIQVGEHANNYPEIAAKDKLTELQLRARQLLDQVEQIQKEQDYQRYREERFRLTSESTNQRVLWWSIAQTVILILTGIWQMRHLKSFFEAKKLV
UniProt Q7RTS9: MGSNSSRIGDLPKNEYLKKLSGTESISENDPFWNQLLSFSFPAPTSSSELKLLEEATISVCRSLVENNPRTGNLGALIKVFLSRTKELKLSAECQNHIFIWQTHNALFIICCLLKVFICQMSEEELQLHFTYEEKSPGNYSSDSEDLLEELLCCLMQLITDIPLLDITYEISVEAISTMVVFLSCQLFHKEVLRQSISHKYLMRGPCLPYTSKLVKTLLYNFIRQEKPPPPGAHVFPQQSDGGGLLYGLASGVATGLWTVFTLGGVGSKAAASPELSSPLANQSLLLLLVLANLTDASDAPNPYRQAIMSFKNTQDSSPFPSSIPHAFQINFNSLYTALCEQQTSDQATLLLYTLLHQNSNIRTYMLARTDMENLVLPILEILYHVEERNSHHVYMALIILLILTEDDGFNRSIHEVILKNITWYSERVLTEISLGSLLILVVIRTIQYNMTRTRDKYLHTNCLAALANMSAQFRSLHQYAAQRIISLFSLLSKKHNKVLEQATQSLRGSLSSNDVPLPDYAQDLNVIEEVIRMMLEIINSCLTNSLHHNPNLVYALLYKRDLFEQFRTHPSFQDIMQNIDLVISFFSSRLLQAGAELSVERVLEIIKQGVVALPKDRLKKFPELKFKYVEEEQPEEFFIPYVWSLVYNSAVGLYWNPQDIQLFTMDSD
UniProt Q86SZ2: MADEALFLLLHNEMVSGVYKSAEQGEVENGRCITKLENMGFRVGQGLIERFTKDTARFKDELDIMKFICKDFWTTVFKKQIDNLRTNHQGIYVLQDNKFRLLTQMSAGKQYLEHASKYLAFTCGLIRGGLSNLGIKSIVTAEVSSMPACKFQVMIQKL
UniProt Q86UW6: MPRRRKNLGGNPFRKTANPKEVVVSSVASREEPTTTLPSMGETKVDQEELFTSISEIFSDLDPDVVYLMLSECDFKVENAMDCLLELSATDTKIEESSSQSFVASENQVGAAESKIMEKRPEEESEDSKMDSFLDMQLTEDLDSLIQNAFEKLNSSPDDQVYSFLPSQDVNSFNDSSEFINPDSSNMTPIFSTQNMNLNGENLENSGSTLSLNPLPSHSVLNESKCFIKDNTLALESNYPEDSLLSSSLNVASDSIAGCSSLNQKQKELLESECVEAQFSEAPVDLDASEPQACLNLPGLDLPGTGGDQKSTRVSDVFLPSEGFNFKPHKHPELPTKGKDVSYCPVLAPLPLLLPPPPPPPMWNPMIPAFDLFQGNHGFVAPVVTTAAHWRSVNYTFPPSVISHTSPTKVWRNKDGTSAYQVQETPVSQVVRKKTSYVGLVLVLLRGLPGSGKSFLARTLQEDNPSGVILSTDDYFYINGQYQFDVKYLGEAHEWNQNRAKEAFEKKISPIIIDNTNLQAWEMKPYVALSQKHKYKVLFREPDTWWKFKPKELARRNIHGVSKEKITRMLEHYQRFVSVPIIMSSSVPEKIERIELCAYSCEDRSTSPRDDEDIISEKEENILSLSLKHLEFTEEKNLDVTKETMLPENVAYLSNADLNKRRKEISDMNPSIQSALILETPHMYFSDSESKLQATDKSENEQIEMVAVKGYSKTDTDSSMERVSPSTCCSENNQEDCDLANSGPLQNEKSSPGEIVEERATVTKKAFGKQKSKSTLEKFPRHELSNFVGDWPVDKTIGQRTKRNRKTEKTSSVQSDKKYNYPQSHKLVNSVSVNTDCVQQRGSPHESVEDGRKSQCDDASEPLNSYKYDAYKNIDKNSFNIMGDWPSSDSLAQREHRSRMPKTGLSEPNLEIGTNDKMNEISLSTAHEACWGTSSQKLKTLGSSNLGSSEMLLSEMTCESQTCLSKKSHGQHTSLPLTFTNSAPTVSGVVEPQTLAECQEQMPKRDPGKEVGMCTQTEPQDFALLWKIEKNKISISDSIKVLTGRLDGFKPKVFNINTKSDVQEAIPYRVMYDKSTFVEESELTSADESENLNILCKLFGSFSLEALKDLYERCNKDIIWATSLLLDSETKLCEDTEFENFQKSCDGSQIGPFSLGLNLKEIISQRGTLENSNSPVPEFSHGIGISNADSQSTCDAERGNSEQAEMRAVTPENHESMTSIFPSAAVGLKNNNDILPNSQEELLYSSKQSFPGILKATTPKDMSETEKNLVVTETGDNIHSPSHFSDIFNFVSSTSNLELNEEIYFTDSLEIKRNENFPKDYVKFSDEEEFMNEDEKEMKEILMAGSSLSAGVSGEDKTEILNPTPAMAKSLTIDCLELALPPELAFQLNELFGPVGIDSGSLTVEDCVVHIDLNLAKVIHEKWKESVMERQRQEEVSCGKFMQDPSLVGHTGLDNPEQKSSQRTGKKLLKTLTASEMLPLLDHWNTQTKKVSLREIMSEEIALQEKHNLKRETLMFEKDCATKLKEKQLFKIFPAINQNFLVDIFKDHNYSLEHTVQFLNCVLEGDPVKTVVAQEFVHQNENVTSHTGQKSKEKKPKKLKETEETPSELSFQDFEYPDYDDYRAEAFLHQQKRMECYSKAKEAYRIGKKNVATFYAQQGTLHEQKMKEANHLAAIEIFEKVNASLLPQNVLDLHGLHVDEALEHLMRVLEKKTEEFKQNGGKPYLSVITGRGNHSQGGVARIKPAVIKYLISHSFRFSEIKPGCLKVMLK

± gives the standard deviation of the averaged measurements. Only a part is listed here, and it is no random draw.

Compound in the assay: Nc1ncnc2c1ncn2[C@@H]1O[C@H](COP(=O)(O)OP(=O)(O)OP(=O)(O)O)[C@@H](O)[C@H]1O [adenosine triphosphate]
In words: NP40-soluble protein abundance relative to vehicle (solubility fold change) (ratio); higher = more soluble protein in presence of ATP. Particulars: concentration: 1mM. Put shortly: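 In three independent experiments, Jurkat crude lysate made by Dounce homogenisation was treated for 10 min at room temperature and then 3 min at 37 °C with eight concentrations ranging from 0.1 to 10 mM. It was then solubilised with 0.8% NP40 plus benzonase for 60 min at 4 °C and ultracentrifuged. The supernatant was TMT-labelled for LC-MS/MS, and each value is the fold change against the detergent-processed vehicle for the same replicate, using vsn-normalised intensities.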
For the target CCDC25 (UniProt Q86WR0), the NP40-soluble protein abundance was determined as 0.967 ± 0.039.

Turning to UniProt Q7Z6K3 and related entries, the NP40-soluble protein abundance stood at 0.9836 ± 0.0097.

For NUDT18 (UniProt Q6ZVK8), the NP40-soluble protein abundance amounted to 0.958 ± 0.024.

Take HDDC2 (UniProt Q7Z4H3): the NP40-soluble protein abundance came out at 0.92 ± 0.13.

As to BLOC1S2 (UniProt Q6QNY1), the NP40-soluble protein abundance came to 0.988 ± 0.099.

With GPR180 (UniProt Q86V85), the NP40-soluble protein abundance amounted to 0.961 ± 0.033.

As for UniProt Q7L8J4 and related entries, the NP40-soluble protein abundance stood at 0.967 ± 0.065.

In the case of UniProt Q7Z7H8 and related entries, the NP40-soluble protein abundance was determined as 1.12 ± 0.07.

In the case of UniProt Q7L5D6, the NP40-soluble protein abundance worked out at 0.947 ± 0.14.

In the case of UniProt Q86VP1-2|B8ZZD4, the NP40-soluble protein abundance came out at 0.96 ± 0.024.

Take UniProt Q71RG4 and related entries: the NP40-soluble protein abundance stood at 0.952 ± 0.065.

Turning to UniProt Q7Z3K3 and related entries, the NP40-soluble protein abundance came out at 1.04 ± 0.026.

Turning to HS2ST1 (UniProt Q7LGA3), the NP40-soluble protein abundance turned out to be 1.11 ± 0.071.

In the case of UniProt Q86UA6 and related entries, the NP40-soluble protein abundance amounted to 1.04 ± 0.1.

Consider UniProt Q7Z7L7, for which the NP40-soluble protein abundance was 0.96049 ± 0.00035.

For the target UniProt Q7Z2W9 and related entries, the NP40-soluble protein abundance worked out at 1.26 ± 0.063.

Consider HOMER1 (UniProt Q86YM7), for which the NP40-soluble protein abundance was determined as 0.961 ± 0.093.

On to UniProt Q6UWP7 and related entries, for which the NP40-soluble protein abundance amounted to 0.997 ± 0.088.

With BLOC1S3 (UniProt Q6QNY0), the NP40-soluble protein abundance came out at 0.969 ± 0.045.

For the target ATAD2 (UniProt Q6PL18), the NP40-soluble protein abundance stood at 1.31 ± 0.083.

With TMED4 (UniProt Q7Z7H5), the NP40-soluble protein abundance amounted to 0.923 ± 0.023.

As to UniProt Q6PIF6, the NP40-soluble protein abundance is 1.08 ± 0.15.

Regarding UniProt Q7Z460-4, the NP40-soluble protein abundance is 1.09 ± 0.044.

On to “UniProt Q6PJT7-3|Q6PJT7-5|Q6PJT7-9|Q6PJT7”, for which the NP40-soluble protein abundance worked out at 1.21 ± 0.067.

As to DYM (UniProt Q7RTS9), the NP40-soluble protein abundance came out at 1.02 ± 0.04.

Regarding TRAPPC6B (UniProt Q86SZ2), the NP40-soluble protein abundance was 0.947 ± 0.099.

Regarding UniProt Q86UW6 and related entries, the NP40-soluble protein abundance is 1.12 ± 0.024.
